Data source: PubChem BioAssay AID602196 (INSERM, 2012)

Purpose: 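Knock-downs that protect lung cancer cells from cisplatin or sensitise them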
Cells: human A549 lung cancer cells
Reagent: siRNA pair against human genes
Time to read-out: 48 h transfection before cisplatin; time from cisplatin to read-out not stated
Challenge: cisplatin at a dose killing half of control-siRNA cells; exact dose and duration not given
Measured: 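Cisplatin cell death as a shift from the 50% death seen with control siRNA; siRNAs toxic or growth-blocking alone scored 0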
Direction: two-siRNA summed score (-2 to +2): higher = both siRNAs protect from cisplatin killing; -2 means both sensitise
Rule for the call: 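Each siRNA scores 0 if harmful alone by LDH or WST-1, otherwise +1 if it reduces and -1 if it increases cisplatin killing; a gene is active when both siRNAs agree (sum +2 or -2)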
Meaning of the calls: active = both siRNAs shift cisplatin killing the same way; inactive = no consistent shift, or siRNA harmful alone
Shown is a random part of about 23,000 deposited reagents. Over the whole deposit, 455 (2%) are marked active. 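Active includes both protection and sensitisation; some change values fall well beyond the stated -50 to +50 range.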 Further read-outs or replicates are left out here. Not stated in the record: the amount of reagent.

After knock-down of ENTPD3 the results were two-siRNA summed score (-2 to +2) = -1; inactive.
After knock-down of DDX1 the results were two-siRNA summed score (-2 to +2) = 0; inactive.
Against CLN8 the deposit lists two-siRNA summed score (-2 to +2) = 0; inactive.
After knock-down of RAET1L the results were two-siRNA summed score (-2 to +2) = -1; inactive.
After knock-down of OPN4, the screen gave two-siRNA summed score (-2 to +2) = 0; inactive.
With knock-down of LUM, the screen gave two-siRNA summed score (-2 to +2) = 1; inactive.
With knock-down of TAF13 the results were two-siRNA summed score (-2 to +2) = 0; inactive.
Against LOC388419, the values are two-siRNA summed score (-2 to +2) = 0; inactive.
After knock-down of UBXN11 the results were two-siRNA summed score (-2 to +2) = 0; inactive.
Against SNIP1 the deposit lists two-siRNA summed score (-2 to +2) = 0; inactive.
With knock-down of VCP the results were two-siRNA summed score (-2 to +2) = 0; inactive.
For NR0B1 the deposit lists two-siRNA summed score (-2 to +2) = 1; inactive.
For CARS1, the values are two-siRNA summed score (-2 to +2) = 0; inactive.
With knock-down of DMGDH the results were two-siRNA summed score (-2 to +2) = 1; inactive.
After knock-down of LOC442560 the results were two-siRNA summed score (-2 to +2) = 0; inactive.
Knock-down of UBP1 resulted in: two-siRNA summed score (-2 to +2) = 0; inactive.
With knock-down of PMEPA1, the record shows two-siRNA summed score (-2 to +2) = 0; inactive.
With knock-down of BANK1 the results were two-siRNA summed score (-2 to +2) = 0; inactive.
Against LOC440862, the entry reads two-siRNA summed score (-2 to +2) = 0; inactive.
For LOC388229 the deposit lists two-siRNA summed score (-2 to +2) = 1; inactive.
Knock-down of LOC392791 came out at: two-siRNA summed score (-2 to +2) = 0; inactive.
LOC400846 showed two-siRNA summed score (-2 to +2) = 0; inactive.
Against AANAT, the entry reads two-siRNA summed score (-2 to +2) = 1; inactive.
For STXBP5 the deposit lists two-siRNA summed score (-2 to +2) = -1; inactive.
Knock-down of CASC2 came out at: two-siRNA summed score (-2 to +2) = 2; active.
Depletion of THNSL1 came out at: two-siRNA summed score (-2 to +2) = 0; inactive.
LRSAM1 scored two-siRNA summed score (-2 to +2) = 0; inactive.
TOP1MT gave two-siRNA summed score (-2 to +2) = 0; inactive.
Knock-down of COPS2 resulted in: two-siRNA summed score (-2 to +2) = 0; inactive.
LOC441010 scored two-siRNA summed score (-2 to +2) = 0; inactive.
With knock-down of CNGA3, the record shows two-siRNA summed score (-2 to +2) = 0; inactive.

No new results follow: 4 of the entries above.
PMEPA1 → two-siRNA summed score (-2 to +2): 0; activity call: inactive
BANK1 → two-siRNA summed score (-2 to +2): 0; activity call: inactive
LOC440862 → two-siRNA summed score (-2 to +2): 0; activity call: inactive
LOC388229 → two-siRNA summed score (-2 to +2): 1; activity call: inactive
